For experiment [1], the target named is T1, GST-SID-3 (C. elegans) (UniProt Q10925).
T1 sequence: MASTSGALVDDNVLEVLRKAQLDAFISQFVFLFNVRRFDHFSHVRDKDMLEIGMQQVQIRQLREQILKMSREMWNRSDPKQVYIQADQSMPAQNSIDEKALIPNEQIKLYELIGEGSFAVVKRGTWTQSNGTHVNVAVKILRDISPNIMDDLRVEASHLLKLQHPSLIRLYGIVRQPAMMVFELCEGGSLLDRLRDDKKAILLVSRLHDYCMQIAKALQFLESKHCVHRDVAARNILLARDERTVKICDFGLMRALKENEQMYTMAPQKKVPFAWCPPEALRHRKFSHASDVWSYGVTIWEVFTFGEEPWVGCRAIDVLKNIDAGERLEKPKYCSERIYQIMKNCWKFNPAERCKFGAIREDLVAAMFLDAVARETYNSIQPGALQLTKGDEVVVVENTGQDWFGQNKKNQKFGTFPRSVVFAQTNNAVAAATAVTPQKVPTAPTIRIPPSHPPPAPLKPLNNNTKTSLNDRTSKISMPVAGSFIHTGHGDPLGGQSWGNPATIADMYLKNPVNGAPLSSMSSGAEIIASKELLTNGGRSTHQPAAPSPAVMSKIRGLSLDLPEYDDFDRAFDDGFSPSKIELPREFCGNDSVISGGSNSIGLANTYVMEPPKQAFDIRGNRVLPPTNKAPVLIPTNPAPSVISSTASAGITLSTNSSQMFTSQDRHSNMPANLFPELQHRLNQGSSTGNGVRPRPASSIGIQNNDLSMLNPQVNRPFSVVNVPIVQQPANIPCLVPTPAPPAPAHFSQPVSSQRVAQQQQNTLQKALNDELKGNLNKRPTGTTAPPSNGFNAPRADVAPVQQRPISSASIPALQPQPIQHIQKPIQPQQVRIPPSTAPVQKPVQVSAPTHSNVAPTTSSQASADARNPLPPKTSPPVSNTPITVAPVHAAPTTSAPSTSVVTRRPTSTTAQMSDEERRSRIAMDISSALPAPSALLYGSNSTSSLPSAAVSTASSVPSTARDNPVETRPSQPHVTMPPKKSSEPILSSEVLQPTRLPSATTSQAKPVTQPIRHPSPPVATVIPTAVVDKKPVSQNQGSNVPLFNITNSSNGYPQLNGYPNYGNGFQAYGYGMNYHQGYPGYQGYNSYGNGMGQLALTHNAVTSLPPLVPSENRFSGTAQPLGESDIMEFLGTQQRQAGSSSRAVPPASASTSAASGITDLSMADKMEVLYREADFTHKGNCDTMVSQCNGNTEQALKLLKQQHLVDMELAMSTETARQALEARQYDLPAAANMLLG
Put plainly: pull-down; GST fusion on glutathione sepharose 4B beads; in vitro translated HA-tagged protein (15 μL TNT mix in 700 μL binding buffer) bound at 4°C overnight; washes in 50 mM Tris pH 8.0, 300 mM NaCl, 0.2% NP-40, 1 mM DTT; anti-HA blot; only the target purified.

Experiment [2] addresses EHBP-1-GFP (C. elegans) (UniProt G5ECW3). Put plainly: co-IP; whole-worm lysate of animals co-expressing SID-3-mCherry and EHBP-1-GFP (control: SID-3-mCherry only); GFP-Trap beads, 4°C, 6 hours; lysis buffer 25 mM Tris-HCl pH 7.5, 100 mM NaCl, 1 mM EDTA, 0.5% NP-40.
For experiment [3], the target named is GST-NCK-1 (C. elegans). Put plainly: pull-down; GST fusion on glutathione sepharose 4B beads; in vitro translated HA-tagged protein (15 μL TNT mix in 700 μL binding buffer) bound at 4°C overnight; washes in 50 mM Tris pH 8.0, 300 mM NaCl, 0.2% NP-40, 1 mM DTT; anti-HA blot; only the target purified.

These are yes or no findings as the source states them, for the method shown. In cells and extracts the contact can be indirect. For some assays here: A result given as binding can be weak or reduced; the word gives no strength. For some assays here: Tags and fused reporters may be left off the sequences shown.

With “HA-EHBP-1(aa 260–510) (C. elegans) (domain or fragment)”, the binding result in experiment [1] is listed as “no binding”.
For “HA-EHBP-1(aa 511–901) (C. elegans) (domain or fragment)”, the binding entry in experiment [1] is listed as “no binding”.

B1: SID-3-mCherry (protein, UniProt Q10925 1-1237)
chain: T1 sequence
In the case of B1, the binding result in experiment [2] is “binds”.

B2: HA-DYN-1(aa 504–838) (domain or fragment, UniProt P39055-2 504-838)
chain: AKASQGQSAKKNLGNQVIRKGWLSLSNVSFVRGSKDNWFVLMSDSLSWYKDDEEKEKKYMLPLDGVKLKDIEGGFMSRNHKFALFYPDGKNIYKDYKQLELGCTNLDEIDAWKASFLRAGVYPEKQKAQEDESQQEMEDTSIDPQLERQVETIRNLVDSYMRIITKTIKDLVPKAVMHLIVNQTGEFMKDELLAHLYQCGDTDALMEESQIEAQKREEMLRMYHACKEALRIISEVNMSTLGDQPPPLPMSDYRPHPSGPSPVPRPAPAPPGGRQAPMPPRGGPGAPPPPGMRPPPGAPGGGGGMYPPLIPTRVPTPSNGAPEIPARPQVPKRPF
As for B2, the binding result in experiment [3] is on record as “binds”.

B3: HA-SID-3(aa 1–544) (domain or fragment, UniProt Q10925 1-544)
chain: MASTSGALVDDNVLEVLRKAQLDAFISQFVFLFNVRRFDHFSHVRDKDMLEIGMQQVQIRQLREQILKMSREMWNRSDPKQVYIQADQSMPAQNSIDEKALIPNEQIKLYELIGEGSFAVVKRGTWTQSNGTHVNVAVKILRDISPNIMDDLRVEASHLLKLQHPSLIRLYGIVRQPAMMVFELCEGGSLLDRLRDDKKAILLVSRLHDYCMQIAKALQFLESKHCVHRDVAARNILLARDERTVKICDFGLMRALKENEQMYTMAPQKKVPFAWCPPEALRHRKFSHASDVWSYGVTIWEVFTFGEEPWVGCRAIDVLKNIDAGERLEKPKYCSERIYQIMKNCWKFNPAERCKFGAIREDLVAAMFLDAVARETYNSIQPGALQLTKGDEVVVVENTGQDWFGQNKKNQKFGTFPRSVVFAQTNNAVAAATAVTPQKVPTAPTIRIPPSHPPPAPLKPLNNNTKTSLNDRTSKISMPVAGSFIHTGHGDPLGGQSWGNPATIADMYLKNPVNGAPLSSMSSGAEIIASKELLTNGGRSTHQP
As to B3, the binding result in experiment [3] is “binds”.

(Values after PMC7239482.)
